Assay [1] has as its target T1, RNF181 (human (endogenous in H9 hESCs)) (UniProt Q9P0P0).
T1 sequence: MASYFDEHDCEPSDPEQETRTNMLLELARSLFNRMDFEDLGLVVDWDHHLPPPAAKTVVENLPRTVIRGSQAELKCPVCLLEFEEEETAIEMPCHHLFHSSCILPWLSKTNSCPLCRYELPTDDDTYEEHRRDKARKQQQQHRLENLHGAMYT
Kind of assay: affinity purification with mass spectrometry; endogenous E3 (HERC2, HECTD1, RNF181, KCMF1 or UBR7) immunoprecipitated with its antibody (4 µg, 30 minutes on ice) from 330 µg H9 hESC RIPA lysate (50 mM Tris-HCl pH 6.7, 150 mM NaCl, 1% Triton x-100, 1% sodium deoxycholate, 1 mM EDTA), µMACS Micro Beads; control co-IP with anti-FLAG antibody; label-free LC-MS/MS, FDR < 0.2; no RNase.

Sequences of proteins named here, by UniProt entry; tags and fusion partners are left off.
UniProt O95714: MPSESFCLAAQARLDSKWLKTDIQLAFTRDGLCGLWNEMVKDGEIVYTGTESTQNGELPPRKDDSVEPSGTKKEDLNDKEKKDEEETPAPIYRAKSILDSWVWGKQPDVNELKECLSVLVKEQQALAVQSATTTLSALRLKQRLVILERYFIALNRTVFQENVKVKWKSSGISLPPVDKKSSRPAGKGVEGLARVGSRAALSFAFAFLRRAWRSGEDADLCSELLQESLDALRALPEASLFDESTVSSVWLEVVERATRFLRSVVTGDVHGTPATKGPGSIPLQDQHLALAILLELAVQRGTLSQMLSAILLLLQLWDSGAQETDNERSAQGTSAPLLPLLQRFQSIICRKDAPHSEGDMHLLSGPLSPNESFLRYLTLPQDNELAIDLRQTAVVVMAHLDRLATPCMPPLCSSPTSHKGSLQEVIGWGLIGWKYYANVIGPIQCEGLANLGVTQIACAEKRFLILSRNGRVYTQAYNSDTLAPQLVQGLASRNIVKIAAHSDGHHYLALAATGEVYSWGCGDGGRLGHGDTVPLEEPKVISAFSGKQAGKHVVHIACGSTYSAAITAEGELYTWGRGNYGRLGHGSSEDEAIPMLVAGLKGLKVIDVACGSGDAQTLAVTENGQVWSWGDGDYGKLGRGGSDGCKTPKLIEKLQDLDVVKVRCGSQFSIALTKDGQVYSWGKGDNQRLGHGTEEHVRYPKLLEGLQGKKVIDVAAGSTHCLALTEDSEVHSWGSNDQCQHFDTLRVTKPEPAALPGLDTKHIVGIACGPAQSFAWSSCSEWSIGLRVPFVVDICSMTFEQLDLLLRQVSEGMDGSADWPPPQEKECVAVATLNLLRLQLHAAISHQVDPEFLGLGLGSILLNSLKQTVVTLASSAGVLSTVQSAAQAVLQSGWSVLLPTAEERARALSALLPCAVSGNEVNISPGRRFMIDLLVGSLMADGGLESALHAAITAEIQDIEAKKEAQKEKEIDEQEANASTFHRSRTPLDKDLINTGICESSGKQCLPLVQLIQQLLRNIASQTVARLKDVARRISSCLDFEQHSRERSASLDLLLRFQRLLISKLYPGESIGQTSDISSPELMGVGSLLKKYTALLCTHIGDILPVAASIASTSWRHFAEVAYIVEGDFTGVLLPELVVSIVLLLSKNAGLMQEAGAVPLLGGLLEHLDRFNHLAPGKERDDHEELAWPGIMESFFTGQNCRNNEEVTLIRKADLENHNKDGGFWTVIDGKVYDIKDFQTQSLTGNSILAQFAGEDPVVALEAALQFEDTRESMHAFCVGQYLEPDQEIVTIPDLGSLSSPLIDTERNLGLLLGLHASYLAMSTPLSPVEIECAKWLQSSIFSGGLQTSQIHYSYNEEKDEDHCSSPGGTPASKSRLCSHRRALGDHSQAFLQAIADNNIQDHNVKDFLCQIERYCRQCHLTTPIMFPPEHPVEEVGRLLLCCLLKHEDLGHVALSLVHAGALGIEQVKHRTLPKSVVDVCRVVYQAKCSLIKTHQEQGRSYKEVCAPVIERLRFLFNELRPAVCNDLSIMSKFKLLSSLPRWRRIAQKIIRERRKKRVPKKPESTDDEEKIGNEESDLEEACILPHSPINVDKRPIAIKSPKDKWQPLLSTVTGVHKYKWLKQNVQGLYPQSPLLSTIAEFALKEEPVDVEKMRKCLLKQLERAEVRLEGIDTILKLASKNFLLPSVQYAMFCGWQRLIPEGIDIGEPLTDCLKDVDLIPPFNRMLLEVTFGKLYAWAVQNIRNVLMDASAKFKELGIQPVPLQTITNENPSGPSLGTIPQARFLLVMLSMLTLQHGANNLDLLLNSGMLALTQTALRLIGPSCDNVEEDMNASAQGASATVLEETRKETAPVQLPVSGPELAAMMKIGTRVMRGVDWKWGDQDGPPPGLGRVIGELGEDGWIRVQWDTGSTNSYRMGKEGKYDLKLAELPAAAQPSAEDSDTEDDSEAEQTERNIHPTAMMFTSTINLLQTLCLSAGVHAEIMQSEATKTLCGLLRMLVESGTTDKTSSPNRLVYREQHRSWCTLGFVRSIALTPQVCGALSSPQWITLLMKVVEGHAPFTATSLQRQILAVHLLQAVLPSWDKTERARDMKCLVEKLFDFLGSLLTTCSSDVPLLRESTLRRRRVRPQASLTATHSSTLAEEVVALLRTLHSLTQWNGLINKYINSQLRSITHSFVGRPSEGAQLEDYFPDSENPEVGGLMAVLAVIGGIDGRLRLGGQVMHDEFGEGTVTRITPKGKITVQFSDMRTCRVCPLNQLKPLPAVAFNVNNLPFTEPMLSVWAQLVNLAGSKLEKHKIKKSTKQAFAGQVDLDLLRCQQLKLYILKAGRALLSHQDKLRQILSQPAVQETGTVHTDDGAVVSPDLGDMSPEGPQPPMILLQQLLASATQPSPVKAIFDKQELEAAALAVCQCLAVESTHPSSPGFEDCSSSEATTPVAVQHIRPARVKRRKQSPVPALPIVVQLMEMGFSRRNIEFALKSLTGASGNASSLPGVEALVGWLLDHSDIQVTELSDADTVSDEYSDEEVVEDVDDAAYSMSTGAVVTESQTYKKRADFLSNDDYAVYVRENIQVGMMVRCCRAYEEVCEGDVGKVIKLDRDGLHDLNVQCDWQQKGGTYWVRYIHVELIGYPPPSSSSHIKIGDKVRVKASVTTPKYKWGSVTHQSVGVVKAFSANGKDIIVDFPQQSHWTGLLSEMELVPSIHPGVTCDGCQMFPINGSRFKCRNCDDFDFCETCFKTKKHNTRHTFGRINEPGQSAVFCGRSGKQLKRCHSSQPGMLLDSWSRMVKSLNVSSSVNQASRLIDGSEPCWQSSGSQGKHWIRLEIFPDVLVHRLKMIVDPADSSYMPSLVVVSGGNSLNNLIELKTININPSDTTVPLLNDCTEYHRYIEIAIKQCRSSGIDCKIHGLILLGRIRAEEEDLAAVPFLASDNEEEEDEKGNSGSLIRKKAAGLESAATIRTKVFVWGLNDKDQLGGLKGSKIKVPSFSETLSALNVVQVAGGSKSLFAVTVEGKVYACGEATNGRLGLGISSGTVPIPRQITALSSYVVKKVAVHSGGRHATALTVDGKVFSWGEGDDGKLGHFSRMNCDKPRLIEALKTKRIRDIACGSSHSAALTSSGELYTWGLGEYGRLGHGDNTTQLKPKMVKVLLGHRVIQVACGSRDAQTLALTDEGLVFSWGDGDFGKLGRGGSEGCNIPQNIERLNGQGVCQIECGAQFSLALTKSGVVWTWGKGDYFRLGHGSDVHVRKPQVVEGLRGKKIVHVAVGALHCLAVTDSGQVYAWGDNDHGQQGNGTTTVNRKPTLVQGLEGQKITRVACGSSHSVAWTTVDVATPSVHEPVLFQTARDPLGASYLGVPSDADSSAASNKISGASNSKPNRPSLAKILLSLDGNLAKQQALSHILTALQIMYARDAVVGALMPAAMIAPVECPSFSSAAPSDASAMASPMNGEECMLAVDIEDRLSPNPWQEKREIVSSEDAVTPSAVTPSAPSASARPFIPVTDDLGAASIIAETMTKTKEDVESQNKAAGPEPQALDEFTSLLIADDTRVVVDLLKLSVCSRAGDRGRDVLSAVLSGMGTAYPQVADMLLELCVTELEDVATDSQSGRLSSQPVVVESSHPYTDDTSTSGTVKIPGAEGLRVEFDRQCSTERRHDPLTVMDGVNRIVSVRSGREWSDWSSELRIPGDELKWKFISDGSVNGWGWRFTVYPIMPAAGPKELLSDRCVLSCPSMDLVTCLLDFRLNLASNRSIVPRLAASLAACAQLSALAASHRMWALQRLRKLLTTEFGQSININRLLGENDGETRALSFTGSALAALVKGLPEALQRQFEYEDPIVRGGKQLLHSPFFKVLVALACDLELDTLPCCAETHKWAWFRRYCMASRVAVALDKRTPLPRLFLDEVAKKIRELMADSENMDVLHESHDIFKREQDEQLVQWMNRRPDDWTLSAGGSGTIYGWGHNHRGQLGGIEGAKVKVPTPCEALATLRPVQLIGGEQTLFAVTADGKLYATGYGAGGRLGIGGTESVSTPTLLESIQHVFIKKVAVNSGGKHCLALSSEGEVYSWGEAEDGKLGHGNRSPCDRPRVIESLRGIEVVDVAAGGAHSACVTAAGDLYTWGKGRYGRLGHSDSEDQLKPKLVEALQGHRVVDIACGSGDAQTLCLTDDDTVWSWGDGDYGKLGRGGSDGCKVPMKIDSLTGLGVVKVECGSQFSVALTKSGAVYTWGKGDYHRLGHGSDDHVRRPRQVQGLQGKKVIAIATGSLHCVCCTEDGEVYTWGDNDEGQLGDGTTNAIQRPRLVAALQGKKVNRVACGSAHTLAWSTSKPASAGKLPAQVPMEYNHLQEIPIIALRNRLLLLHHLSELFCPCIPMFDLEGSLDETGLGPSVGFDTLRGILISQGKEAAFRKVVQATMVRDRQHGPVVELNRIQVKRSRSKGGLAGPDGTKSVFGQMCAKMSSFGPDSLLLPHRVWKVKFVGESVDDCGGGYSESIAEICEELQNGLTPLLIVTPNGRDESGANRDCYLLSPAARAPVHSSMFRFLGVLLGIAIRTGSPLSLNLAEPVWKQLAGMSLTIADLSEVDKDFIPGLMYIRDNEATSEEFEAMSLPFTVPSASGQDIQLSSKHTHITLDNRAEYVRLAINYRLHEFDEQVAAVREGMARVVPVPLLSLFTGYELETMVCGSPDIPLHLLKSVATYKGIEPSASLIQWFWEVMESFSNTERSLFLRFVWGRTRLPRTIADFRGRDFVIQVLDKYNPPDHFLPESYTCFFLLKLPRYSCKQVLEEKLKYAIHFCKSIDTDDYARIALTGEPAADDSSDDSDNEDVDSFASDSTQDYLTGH
UniProt P42025: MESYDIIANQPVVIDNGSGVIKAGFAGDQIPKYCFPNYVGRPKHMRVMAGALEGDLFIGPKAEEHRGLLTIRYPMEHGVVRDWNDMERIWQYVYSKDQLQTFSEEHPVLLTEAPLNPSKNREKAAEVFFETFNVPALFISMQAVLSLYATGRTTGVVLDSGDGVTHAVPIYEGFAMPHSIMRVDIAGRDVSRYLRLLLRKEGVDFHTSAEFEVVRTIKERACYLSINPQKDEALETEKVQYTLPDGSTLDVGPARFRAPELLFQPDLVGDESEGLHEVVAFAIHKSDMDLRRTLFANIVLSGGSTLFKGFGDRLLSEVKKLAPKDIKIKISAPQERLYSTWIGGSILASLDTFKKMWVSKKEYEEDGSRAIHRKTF
UniProt Q9UHI6: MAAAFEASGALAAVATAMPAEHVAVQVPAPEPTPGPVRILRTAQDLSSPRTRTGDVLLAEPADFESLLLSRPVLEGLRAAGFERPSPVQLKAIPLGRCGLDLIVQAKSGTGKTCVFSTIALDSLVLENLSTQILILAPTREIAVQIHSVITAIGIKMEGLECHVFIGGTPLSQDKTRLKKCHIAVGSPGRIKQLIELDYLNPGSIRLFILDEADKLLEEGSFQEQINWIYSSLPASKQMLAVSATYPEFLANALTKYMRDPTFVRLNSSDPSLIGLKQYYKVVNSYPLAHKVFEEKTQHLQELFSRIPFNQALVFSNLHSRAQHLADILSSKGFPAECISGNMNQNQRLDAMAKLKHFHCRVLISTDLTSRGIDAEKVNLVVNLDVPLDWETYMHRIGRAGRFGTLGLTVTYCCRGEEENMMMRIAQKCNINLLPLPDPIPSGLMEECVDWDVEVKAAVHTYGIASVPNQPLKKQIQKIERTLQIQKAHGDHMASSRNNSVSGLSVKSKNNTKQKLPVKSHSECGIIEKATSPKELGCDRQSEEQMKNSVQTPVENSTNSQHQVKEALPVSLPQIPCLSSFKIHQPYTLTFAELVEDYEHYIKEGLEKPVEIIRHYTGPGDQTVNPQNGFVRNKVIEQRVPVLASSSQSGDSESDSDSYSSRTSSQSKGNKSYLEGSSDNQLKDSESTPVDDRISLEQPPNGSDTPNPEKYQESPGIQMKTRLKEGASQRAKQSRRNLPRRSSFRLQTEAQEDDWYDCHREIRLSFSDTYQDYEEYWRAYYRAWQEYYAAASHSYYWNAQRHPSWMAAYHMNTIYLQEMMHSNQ
UniProt P49841: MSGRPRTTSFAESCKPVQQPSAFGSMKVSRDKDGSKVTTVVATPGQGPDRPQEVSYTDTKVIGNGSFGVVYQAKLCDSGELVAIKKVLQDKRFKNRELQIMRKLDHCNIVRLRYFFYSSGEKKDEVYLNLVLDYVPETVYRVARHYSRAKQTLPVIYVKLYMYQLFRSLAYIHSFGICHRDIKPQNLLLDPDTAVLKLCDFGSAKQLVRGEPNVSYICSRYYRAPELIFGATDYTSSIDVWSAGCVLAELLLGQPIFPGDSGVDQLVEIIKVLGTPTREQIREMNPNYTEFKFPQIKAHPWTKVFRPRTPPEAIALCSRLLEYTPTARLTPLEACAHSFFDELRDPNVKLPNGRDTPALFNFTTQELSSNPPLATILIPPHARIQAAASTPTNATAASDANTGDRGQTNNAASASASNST

Assay [2] concerns the target HERC2 (human (endogenous in H9 hESCs)) (UniProt O95714). Kind of assay: affinity purification with mass spectrometry; as a1 for HERC2, but H9 hESC lysate incubated with 125 µl ml^-1 RNase A for one hour on ice prior to immunoprecipitation.
The target of assay [3] is HECTD1 (human (endogenous in H9 hESCs)) (UniProt Q9ULT8). The experiment in a line: affinity purification with mass spectrometry; endogenous E3 (HERC2, HECTD1, RNF181, KCMF1 or UBR7) immunoprecipitated with its antibody (4 µg, 30 minutes on ice) from 330 µg H9 hESC RIPA lysate (50 mM Tris-HCl pH 6.7, 150 mM NaCl, 1% Triton x-100, 1% sodium deoxycholate, 1 mM EDTA), µMACS Micro Beads; control co-IP with anti-FLAG antibody; label-free LC-MS/MS, FDR < 0.2; no RNase.

For assay [4] the target is unchanged. The experiment in a line: affinity purification with mass spectrometry; co-immunoprecipitation of endogenous HECTD1 or RNF181 from neurons differentiated from H9 hESCs, label-free MS, FDR < 0.2.
Assay [5] shares this target. Kind of assay: affinity purification with mass spectrometry; co-immunoprecipitation of endogenous HECTD1 from NPCs differentiated from H9 hESCs (n = 3), label-free MS, FDR < 0.2.
Assay [6] deals with HERC2 (human (endogenous in H9 hESCs)) (UniProt O95714). The experiment in a line: affinity purification with mass spectrometry; endogenous E3 (HERC2, HECTD1, RNF181, KCMF1 or UBR7) immunoprecipitated with its antibody (4 µg, 30 minutes on ice) from 330 µg H9 hESC RIPA lysate (50 mM Tris-HCl pH 6.7, 150 mM NaCl, 1% Triton x-100, 1% sodium deoxycholate, 1 mM EDTA), µMACS Micro Beads; control co-IP with anti-FLAG antibody; label-free LC-MS/MS, FDR < 0.2; no RNase.

In assay [7] the target is T2, UBR7 (human (endogenous in H9 hESCs)) (UniProt Q8N806).
T2 sequence: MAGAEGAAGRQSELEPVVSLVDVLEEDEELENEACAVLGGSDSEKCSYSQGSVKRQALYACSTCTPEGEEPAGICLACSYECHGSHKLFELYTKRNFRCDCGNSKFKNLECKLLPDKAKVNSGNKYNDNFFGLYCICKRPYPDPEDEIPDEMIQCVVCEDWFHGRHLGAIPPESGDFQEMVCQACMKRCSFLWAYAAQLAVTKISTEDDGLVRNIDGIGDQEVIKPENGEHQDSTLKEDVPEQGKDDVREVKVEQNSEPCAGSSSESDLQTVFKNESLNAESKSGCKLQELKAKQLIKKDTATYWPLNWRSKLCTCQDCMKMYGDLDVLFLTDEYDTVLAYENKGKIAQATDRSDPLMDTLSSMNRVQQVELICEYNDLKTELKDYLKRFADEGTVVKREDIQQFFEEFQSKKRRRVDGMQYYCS
Described as above.

Results are given in words; binding and its absence hold for the method and conditions named. In cells and extracts the contact can be indirect. A yes stands for co-enrichment or nearness to the bait. Other partners may have been found. For some of these results: A no says only that the protein was not detected with the bait.

Take ACTR1B (from UniProt P42025 1-376): the binding result in assay [1] is given as “binds”.

Take CENPF (from UniProt P49454 1-3114): the binding entry in assay [2] is reported as “binds”. In the case of DCTN4 (from UniProt Q9UJW0 1-460), the binding result in assay [1] is “binds”. In the case of DDX20 (from UniProt Q9UHI6 1-824), the binding result in assay [2] was “binds”. On the same count and under the same terms, to EIF3C (from UniProt Q99613 1-913) belongs “binds”. Consider EXOC5 (from UniProt O00471 1-708), for which the binding entry in assay [3] was “binds”. GSK3B (from UniProt P49841 1-420): the binding entry in assay [4], in assay [5] and in assay [3] was “binds” throughout.

In the case of LRRK2 (from UniProt Q5S007 1-2527), in assay [6], the binding entry is listed as “no binding”.

As for NEURL4 (from UniProt Q96JN8 1-1562), the binding entry in assay [2] and in assay [6] was “binds” throughout. In the case of PSMD3 (from UniProt O43242 1-534), in assay [1], the binding entry is listed as “binds”. SRGAP2 (from UniProt O75044 1-1071): the binding entry in assay [2] and in assay [6] was “binds” throughout. With ZSCAN10 (from UniProt Q96SZ4 1-780), in assay [7], the binding result was “binds”.

B1: SEC23IP (protein, UniProt Q9Y6Y8 1-1000)
chain: MAERKPNGGSGGASTSSSGTNLLFSSSATEFSFNVPFIPVTQASASPASLLLPGEDSTDVGEEDSFLGQTSIHTSAPQTFSYFSQVSSSSDPFGNIGQSPLTTAATSVGQSGFPKPLTALPFTTGSQDVSNAFSPSISKAQPGAPPSSLMGINSYLPSQPSSLPPSYFGNQPQGIPQPGYNPYRHTPGSSRANPYIAPPQLQQCQTPGPPAHPPPSGPPVQMYQMPPGSLPPVPSSVQSPAQQQVPARPGAPSVQVPSPFLLQNQYEPVQPHWFYCKEVEYKQLWMPFSVFDSLNLEEIYNSVQPDPESVVLGTDGGRYDVYLYDRIRKAAYWEEEPAEVRRCTWFYKGDTDSRFIPYTEEFSEKLEAEYKKAVTTNQWHRRLEFPSGETIVMHNPKVIVQFQPSSVPDEWGTTQDGQTRPRVVKRGIDDNLDEIPDGEMPQVDHLVFVVHGIGPVCDLRFRSIIECVDDFRVVSLKLLRTHFKKSLDDGKVSRVEFLPVHWHSSLGGDATGVDRNIKKITLPSIGRFRHFTNETLLDILFYNSPTYCQTIVEKVGMEINHLHALFMSRNPDFKGGVSVAGHSLGSLILFDILSNQKDLNLSKCPGPLAVANGVVKQLHFQEKQMPEEPKLTLDESYDLVVENKEVLTLQETLEALSLSEYFSTFEKEKIDMESLLMCTVDDLKEMGIPLGPRKKIANFVEHKAAKLKKAASEKKAVAATSTKGQEQSAQKTKDMASLPSESNEPKRKLPVGACVSSVCVNYESFEVGAGQVSVAYNSLDFEPEIFFALGSPIAMFLTIRGVDRIDENYSLPTCKGFFNIYHPLDPVAYRLEPMIVPDLDLKAVLIPHHKGRKRLHLELKESLSRMGSDLKQGFISSLKSAWQTLNEFARAHTSSTQLQEELEKVANQIKEEEEKQVVEAEKVVESPDFSKDEDYLGKVGMLNGGRRIDYVLQEKPIESFNEYLFALQSHLCYWESEDTALLLLKEIYRTMNISPEQPQH
Take B1: the binding entry in assay [2] and in assay [6] was “binds” each time.

B2: A2M (protein, UniProt P01023 24-1474)
chain: SVSGKPQYMVLVPSLLHTETTEKGCVLLSYLNETVTVSASLESVRGNRSLFTDLEAENDVLHCVAFAVPKSSSNEEVMFLTVQVKGPTQEFKKRTTVMVKNEDSLVFVQTDKSIYKPGQTVKFRVVSMDENFHPLNELIPLVYIQDPKGNRIAQWQSFQLEGGLKQFSFPLSSEPFQGSYKVVVQKKSGGRTEHPFTVEEFVLPKFEVQVTVPKIITILEEEMNVSVCGLYTYGKPVPGHVTVSICRKYSDASDCHGEDSQAFCEKFSGQLNSHGCFYQQVKTKVFQLKRKEYEMKLHTEAQIQEEGTVVELTGRQSSEITRTITKLSFVKVDSHFRQGIPFFGQVRLVDGKGVPIPNKVIFIRGNEANYYSNATTDEHGLVQFSINTTNVMGTSLTVRVNYKDRSPCYGYQWVSEEHEEAHHTAYLVFSPSKSFVHLEPMSHELPCGHTQTVQAHYILNGGTLLGLKKLSFYYLIMAKGGIVRTGTHGLLVKQEDMKGHFSISIPVKSDIAPVARLLIYAVLPTGDVIGDSAKYDVENCLANKVDLSFSPSQSLPASHAHLRVTAAPQSVCALRAVDQSVLLMKPDAELSASSVYNLLPEKDLTGFPGPLNDQDNEDCINRHNVYINGITYTPVSSTNEKDMYSFLEDMGLKAFTNSKIRKPKMCPQLQQYEMHGPEGLRVGFYESDVMGRGHARLVHVEEPHTETVRKYFPETWIWDLVVVNSAGVAEVGVTVPDTITEWKAGAFCLSEDAGLGISSTASLRAFQPFFVELTMPYSVIRGEAFTLKATVLNYLPKCIRVSVQLEASPAFLAVPVEKEQAPHCICANGRQTVSWAVTPKSLGNVNFTVSAEALESQELCGTEVPSVPEHGRKDTVIKPLLVEPEGLEKETTFNSLLCPSGGEVSEELSLKLPPNVVEESARASVSVLGDILGSAMQNTQNLLQMPYGCGEQNMVLFAPNIYVLDYLNETQQLTPEIKSKAIGYLNTGYQRQLNYKHYDGSYSTFGERYGRNQGNTWLTAFVLKTFAQARAYIFIDEAHITQALIWLSQRQKDNGCFRSSGSLLNNAIKGGVEDEVTLSAYITIALLEIPLTVTHPVVRNALFCLESAWKTAQEGDHGSHVYTKALLAYAFALAGNQDKRKEVLKSLNEEAVKKDNSVHWERPQKPKAPVGHFYEPQAPSAEVEMTSYVLLAYLTAQPAPTSEDLTSATNIVKWITKQQNAQGGFSSTQDTVVALHALSKYGAATFTRTGKAAQVTIQSSGTFSSKFQVDNNNRLLLQQVSLPELPGEYSMKVTGEGCVYLQTSLKYNILPEKEEFPFALGVQTLPQTCDEPKAHTSFQISLSVSYTGSRSASNMAIVDVKMVSGFIPLKPTVKMLERSNHVSRTEVSSNHVLIYLDKVSNQTLSLFFTVLQDVPVRDLKPAIVKVYDYYETDEFAIAEYNAPCSKDLGNA
Take B2: in assay [7], the binding result was “binds”.

B3: PDHX (protein, UniProt O00330 54-501)
chain: GDPIKILMPSLSPTMEEGNIVKWLKKEGEAVSAGDALCEIETDKAVVTLDASDDGILAKIVVEEGSKNIRLGSLIGLIVEEGEDWKHVEIPKDVGPPPPVSKPSEPRPSPEPQISIPVKKEHIPGTLRFRLSPAARNILEKHSLDASQGTATGPRGIFTKEDALKLVQLKQTGKITESRPTPAPTATPTAPSPLQATAGPSYPRPVIPPVSTPGQPNAVGTFTEIPASNIRRVIAKRLTESKSTVPHAYATADCDLGAVLKVRQDLVKDDIKVSVNDFIIKAAAVTLKQMPDVNVSWDGEGPKQLPFIDISVAVATDKGLLTPIIKDAAAKGIQEIADSVKALSKKARDGKLLPEEYQGGSFSISNLGMFGIDEFTAVINPPQACILAVGRFRPVLKLTEDEEGNAKLQQRQLITVTMSSDSRVVDDELATRFLKSFKANLENPIRLA
Consider B3, for which the binding entry in assay [4], in assay [5] and in assay [3] was “binds” each time.

For the origin of these results see paper PMC5840266.
